Results are given in words; binding and its absence hold for the method and conditions named. Some binding calls cover weakened binding; strength is not graded here.

Protein sequences, listed by entry. Tags and fused reporters are not part of them. Lines headed by an entry give the natural chain unless they say otherwise; changes in a name come on top. Chains listed by the source or under a name are the forms on record and can include a tag or linker.
W352-cynoPro1.ECD.His (G7PG38, form named): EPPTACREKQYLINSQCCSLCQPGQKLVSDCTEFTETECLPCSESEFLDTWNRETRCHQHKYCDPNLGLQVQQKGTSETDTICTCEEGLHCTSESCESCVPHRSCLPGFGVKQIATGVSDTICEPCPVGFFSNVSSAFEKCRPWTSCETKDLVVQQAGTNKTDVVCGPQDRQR

This assay has as its target T1, W352-cynoPro1.ECD.His (cynomolgus monkey, UniProt G7PG38 21-193).
T1 construct: range 21-193; Also used for the 'recombinant cynomolgus monkey CD40 extracellular domain' coated in the ELISA of 3.5; also called Cynomolgus monkey CD40 extracellular domain, His tag; W352-cPro1.ECD.His; not shown: His tag
Nature of the assay: ELISA, plate coated with 1 ug/mL recombinant CD40 extracellular domain. On the technique in general: ELISA stands for enzyme-linked immunosorbent assay.

B1: W3525-1.9.16-P5-uIgG2K (antibody, V domains shown)
VH: QVQLVQSGAEVKKPGSSVKVSCKASGDTVSSYGISWVRQAPGQGLEWMGGSIPFFGTPNYAQKFQGRVTFTADESTSTAYMELSSLRSEDTAVYYCARARRGYSYGHYHYYAMDVWGQGTTVTVAS
VL: DTVMTQSPLSLPVTPGEPASISCRSGQSLLHNNAYNYLDWYLQKPGQSPQLLIYLGSNRASGVPDRFSGSGSGTDFTLKISRVEAEDVGVYYCMQALQTPLSFGGGTKVEIKR
notes: Fully human IgG2 kappa with wild-type human IgG2 constant region; also called W3525 antibody; final lead antibody
B1: the binding result is “binds”.
